In paper PMC5573678:

Biological target: endogenous STING of NR9456 macrophages (mouse (endogenous in NR9456))
Experiment: proximity ligation; Duolink in situ PLA in NR9456-IFI205myc or NR9456 cells, fixed with 4% paraformaldehyde and permeabilised with 0.5% Triton X-100; anti-myc, anti-AIM2 and anti-STING primary antibodies; also after siRNA knockdown of Trex1, Aim2 or Ifi205

B1: endogenous AIM2 of NR9456 macrophages (protein, UniProt Q91VJ1 1-354)
chain: MESEYREMLLLTGLDHITEEELKRFKYFALTEFQIARSTLDVADRTELADHLIQSAGAASAVTKAINIFQKLNYMHIANALEEKKKEAERKLMTNTKKRGTQKVENRSQAENCSAASATRSDNDFKEQAATEVCPQAKPQKKQMVAEQEAIREDLQKDPLVVTVLKAINPFECETQEGRQEIFHATVATETDFFFVKVLNAQFKDKFIPKRTIKISNYLWHSNFMEVTSSSVVVDVESNHEVPNNVVKRARETPRISKLKIQPCGTIVNGLFKVQKITEEKDRVLYGIHDKTGTMEVLVLGNPSKTKCEEGDKIRLTFFEVSKNGVKIQLKSGPCSFFKVIKAAKPKTDMKSVE
- binding: binds

B2: myc-tagged IFI205 (IFI205myc), stably expressed in NR9456 macrophages (protein, UniProt Q8CGE8 1-404)
chain: MENEYKRLVLLEGLECINKHQFNLFKSLMVKDLNLEEDNQEKYTTFQIANMMVKKFPADAGLDRLINFCERVPTLKKRAEILKKERSEVTEETSLEINRQEASPATPTSTTSHMLASERGKTSTTQEETSTAQKRKGMSEEKTDVKKIKASGKADQPPCCEGPTATCQSPISQVSSSASSNIPSAKNQKSQPQNQNIPRGAVLHSEPLTVMVLTATDPFEYESPEHEVKNMFHATVATVSQYFHVKVFNIDLKEKFTKNNFITISNYFESKGILEINETSSVLEAAPKQMIEVPNCITRNANASPKICDIQKGTSGTVFYGVFTLHKKKVKTQNTSYEIKDGSGSIEVVGSGQWHNINCKEGDKLHLFCFHLKRERGQPKLVCGDHSFVKVTKAGKKKEASTVQ
- binding: binds

These are yes or no findings as the source states them, for the method shown. In cells and extracts the contact can be indirect. A result given as binding can be weak or reduced; the word gives no strength. Sequences can lack the tags named with a protein.
